The nature of test [1]: Inhibition of RTK/PI3K/AKT/mTOR signaling in human U87 cells assessed as down regulation of STIP1 gene expression at cytotoxic IC50 measured after 48 hrs relative to control. The test is classed as cell-based. The settings on record: U-87MG ATCC.
Test [2] can be described thus: Inhibition of RTK/PI3K/AKT/mTOR signaling in human U87 cells assessed as up regulation of TMEM57 gene expression at cytotoxic IC50 measured after 48 hrs relative to control. Type of test: cell-based. The conditions noted are these: U-87MG ATCC.

These results are taken from ChEMBL document CHEMBL4316593 (Eur J Med Chem, 2019).

This continues a long series; more values of the same kind are listed elsewhere.

With `CC(=O)C(=NNc1ccccc1C#N)C(C)=O`, the log2FC is -0.878 in test [1] and 0.638 in test [2].
